# Data reported in the supplement of paper PMC6411743.
# By UniProt entry, the sequences of proteins in these tests, tags left out. Where a name states a change or a piece, a line headed by the entry shows the natural chain unless it says otherwise.
# UniProt O14523: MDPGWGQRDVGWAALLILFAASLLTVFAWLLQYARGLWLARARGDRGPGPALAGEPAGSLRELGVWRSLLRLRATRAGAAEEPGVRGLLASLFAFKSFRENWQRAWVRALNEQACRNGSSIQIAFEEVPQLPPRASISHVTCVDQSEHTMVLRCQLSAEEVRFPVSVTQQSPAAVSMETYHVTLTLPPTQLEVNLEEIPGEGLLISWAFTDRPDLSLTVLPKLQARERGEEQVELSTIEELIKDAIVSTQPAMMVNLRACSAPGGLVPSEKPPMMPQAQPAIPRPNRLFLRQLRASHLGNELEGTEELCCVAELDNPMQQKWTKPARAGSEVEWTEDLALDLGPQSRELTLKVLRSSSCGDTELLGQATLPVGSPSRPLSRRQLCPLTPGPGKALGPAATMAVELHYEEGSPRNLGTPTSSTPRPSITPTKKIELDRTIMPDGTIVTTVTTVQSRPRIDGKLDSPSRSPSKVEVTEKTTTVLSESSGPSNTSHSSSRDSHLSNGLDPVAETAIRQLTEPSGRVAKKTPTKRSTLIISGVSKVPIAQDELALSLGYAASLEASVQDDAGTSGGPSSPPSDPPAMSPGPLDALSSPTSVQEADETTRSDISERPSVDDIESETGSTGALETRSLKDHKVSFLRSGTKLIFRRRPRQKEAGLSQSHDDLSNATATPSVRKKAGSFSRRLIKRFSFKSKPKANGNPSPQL
# UniProt Q86Y39: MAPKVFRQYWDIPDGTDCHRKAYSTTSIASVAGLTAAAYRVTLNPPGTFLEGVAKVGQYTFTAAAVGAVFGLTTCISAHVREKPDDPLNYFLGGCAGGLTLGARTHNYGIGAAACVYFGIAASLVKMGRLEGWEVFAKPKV
# UniProt O43505: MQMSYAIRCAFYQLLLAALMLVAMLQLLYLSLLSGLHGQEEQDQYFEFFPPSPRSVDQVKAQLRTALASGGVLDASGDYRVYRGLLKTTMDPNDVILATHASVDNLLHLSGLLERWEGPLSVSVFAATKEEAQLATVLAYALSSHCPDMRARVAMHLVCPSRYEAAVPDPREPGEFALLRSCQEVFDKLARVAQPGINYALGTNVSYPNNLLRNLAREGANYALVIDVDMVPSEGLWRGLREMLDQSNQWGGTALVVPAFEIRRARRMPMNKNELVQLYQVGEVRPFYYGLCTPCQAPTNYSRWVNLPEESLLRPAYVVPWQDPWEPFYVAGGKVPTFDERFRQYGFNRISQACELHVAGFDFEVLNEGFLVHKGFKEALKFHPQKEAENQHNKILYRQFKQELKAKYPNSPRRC
# UniProt O00410: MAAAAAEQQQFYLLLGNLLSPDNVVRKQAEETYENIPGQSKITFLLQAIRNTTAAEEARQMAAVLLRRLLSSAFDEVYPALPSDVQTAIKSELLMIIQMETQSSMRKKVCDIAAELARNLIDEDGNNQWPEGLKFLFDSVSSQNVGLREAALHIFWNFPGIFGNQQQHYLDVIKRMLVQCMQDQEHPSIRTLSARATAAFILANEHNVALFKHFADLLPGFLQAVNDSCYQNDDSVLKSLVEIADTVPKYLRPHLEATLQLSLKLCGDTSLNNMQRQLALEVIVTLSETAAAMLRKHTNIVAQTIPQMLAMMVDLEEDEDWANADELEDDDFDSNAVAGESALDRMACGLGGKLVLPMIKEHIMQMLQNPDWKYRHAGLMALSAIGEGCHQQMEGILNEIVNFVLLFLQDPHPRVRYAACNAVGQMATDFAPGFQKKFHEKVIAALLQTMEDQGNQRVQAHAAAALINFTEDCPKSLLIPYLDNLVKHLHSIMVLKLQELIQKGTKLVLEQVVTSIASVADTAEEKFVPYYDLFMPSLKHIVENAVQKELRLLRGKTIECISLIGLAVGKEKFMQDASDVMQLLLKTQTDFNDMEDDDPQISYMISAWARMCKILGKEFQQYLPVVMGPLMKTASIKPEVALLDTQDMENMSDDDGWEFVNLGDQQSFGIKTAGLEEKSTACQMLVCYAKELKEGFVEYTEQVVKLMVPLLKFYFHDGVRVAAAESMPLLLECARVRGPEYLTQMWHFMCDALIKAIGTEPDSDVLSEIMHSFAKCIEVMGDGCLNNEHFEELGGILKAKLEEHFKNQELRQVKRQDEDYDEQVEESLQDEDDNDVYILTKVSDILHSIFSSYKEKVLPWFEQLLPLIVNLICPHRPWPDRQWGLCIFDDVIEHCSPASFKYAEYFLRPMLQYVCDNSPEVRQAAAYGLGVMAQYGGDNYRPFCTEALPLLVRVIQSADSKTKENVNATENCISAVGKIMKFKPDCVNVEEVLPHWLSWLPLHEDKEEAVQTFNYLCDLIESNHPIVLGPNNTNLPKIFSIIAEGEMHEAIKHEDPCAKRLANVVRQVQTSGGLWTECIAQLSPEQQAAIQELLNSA
# UniProt O00442: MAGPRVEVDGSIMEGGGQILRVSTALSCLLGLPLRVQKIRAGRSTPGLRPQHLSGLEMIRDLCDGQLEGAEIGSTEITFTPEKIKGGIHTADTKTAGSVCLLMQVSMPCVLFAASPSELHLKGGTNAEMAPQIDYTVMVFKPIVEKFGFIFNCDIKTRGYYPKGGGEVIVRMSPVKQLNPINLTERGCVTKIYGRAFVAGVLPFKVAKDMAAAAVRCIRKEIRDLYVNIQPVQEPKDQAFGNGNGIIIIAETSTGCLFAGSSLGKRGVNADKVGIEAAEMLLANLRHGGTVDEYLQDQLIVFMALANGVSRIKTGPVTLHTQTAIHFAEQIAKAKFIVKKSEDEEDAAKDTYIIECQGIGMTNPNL
# UniProt O00151: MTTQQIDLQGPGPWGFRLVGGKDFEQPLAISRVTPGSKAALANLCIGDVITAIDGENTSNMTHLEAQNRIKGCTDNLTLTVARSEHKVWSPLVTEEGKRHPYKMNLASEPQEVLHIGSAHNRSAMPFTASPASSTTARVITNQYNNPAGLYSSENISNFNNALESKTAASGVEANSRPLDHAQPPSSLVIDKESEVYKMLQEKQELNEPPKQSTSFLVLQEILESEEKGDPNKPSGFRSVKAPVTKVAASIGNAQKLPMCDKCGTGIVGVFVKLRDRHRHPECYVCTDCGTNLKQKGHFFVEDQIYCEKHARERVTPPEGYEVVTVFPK
# UniProt O00330, whole entry: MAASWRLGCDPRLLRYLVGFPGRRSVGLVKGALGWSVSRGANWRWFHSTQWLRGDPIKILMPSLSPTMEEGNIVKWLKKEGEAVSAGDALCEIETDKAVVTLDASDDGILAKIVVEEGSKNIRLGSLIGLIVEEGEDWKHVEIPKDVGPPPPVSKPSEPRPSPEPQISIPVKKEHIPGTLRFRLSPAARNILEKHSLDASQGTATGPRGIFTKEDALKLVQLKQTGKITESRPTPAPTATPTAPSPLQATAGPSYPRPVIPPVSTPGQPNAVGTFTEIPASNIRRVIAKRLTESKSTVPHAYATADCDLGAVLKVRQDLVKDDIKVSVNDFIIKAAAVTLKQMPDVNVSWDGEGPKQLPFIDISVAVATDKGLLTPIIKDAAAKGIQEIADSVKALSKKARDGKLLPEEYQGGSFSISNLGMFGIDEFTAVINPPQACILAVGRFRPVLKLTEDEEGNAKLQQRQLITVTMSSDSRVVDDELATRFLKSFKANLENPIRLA
# UniProt Q8NBT2: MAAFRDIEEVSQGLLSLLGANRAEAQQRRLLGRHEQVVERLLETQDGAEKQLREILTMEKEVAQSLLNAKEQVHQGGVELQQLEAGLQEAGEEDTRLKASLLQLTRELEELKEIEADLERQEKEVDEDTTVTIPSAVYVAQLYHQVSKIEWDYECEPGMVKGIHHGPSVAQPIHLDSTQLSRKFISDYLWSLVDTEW
# UniProt O15379: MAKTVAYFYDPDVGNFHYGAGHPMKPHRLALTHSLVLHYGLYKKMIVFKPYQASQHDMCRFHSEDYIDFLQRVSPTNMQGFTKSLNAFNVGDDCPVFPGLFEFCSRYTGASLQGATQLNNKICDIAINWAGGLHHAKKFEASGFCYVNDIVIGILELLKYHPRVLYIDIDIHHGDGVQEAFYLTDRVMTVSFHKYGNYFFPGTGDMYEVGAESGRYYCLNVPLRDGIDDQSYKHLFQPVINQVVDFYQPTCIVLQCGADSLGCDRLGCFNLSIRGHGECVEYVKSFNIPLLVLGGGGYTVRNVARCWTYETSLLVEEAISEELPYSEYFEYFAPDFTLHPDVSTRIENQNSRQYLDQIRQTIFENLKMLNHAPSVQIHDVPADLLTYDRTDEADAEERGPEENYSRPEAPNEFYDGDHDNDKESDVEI
# UniProt O00483, whole entry: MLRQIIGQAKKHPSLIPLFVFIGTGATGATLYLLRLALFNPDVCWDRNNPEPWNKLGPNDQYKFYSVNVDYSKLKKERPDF
# UniProt O43298: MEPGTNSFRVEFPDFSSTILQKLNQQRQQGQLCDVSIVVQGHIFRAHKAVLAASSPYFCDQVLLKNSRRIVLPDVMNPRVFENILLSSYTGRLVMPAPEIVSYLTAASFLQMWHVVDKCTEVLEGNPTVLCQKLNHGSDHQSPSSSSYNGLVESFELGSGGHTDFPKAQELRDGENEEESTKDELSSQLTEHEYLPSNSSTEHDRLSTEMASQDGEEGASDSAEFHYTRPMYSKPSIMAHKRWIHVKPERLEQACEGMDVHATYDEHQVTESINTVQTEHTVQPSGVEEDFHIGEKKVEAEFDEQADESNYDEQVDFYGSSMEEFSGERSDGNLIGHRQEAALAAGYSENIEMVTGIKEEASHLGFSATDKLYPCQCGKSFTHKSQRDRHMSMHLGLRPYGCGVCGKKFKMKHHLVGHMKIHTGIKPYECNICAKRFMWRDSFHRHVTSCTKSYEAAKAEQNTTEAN
# UniProt O00115: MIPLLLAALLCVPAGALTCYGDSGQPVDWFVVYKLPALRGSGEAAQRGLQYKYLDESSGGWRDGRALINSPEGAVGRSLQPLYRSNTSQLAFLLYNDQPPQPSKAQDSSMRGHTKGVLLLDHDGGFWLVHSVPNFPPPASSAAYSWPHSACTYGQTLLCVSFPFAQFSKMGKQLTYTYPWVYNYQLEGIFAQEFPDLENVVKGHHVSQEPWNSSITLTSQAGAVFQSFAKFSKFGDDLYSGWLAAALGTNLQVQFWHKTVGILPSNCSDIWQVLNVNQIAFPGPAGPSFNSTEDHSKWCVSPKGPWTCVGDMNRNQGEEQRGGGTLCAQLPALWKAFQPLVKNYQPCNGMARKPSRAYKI
# UniProt O00462: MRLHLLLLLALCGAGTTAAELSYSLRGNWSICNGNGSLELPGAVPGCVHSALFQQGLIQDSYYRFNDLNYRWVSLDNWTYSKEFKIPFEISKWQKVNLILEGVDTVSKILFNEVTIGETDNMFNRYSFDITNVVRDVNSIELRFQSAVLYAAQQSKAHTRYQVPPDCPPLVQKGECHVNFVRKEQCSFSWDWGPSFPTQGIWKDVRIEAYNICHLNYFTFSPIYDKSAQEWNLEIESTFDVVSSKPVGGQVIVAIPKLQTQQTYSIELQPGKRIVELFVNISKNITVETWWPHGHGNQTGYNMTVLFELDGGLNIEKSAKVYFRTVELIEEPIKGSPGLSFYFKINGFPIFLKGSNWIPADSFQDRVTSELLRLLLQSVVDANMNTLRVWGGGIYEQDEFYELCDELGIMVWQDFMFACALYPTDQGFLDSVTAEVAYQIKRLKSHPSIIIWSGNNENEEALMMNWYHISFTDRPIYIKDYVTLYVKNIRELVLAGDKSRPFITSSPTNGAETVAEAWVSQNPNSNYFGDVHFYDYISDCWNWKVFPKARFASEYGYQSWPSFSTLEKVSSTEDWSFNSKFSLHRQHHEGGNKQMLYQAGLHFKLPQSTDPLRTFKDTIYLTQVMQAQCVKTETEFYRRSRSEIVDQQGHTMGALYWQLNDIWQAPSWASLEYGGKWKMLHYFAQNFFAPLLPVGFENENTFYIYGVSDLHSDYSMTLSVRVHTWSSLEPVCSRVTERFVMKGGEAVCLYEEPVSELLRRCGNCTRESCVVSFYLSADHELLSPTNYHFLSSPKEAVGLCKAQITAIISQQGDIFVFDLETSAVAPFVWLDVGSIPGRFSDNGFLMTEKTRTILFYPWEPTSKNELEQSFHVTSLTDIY
# UniProt O14745: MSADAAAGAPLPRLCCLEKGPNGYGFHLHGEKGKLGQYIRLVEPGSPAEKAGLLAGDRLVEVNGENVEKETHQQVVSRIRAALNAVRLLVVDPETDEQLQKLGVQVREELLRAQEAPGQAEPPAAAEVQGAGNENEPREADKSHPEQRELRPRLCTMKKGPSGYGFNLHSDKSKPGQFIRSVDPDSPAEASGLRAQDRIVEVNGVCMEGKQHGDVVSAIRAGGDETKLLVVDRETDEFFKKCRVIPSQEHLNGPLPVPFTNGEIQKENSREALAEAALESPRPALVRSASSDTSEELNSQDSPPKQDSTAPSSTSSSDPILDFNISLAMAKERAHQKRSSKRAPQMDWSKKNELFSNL
# UniProt Q96ND0: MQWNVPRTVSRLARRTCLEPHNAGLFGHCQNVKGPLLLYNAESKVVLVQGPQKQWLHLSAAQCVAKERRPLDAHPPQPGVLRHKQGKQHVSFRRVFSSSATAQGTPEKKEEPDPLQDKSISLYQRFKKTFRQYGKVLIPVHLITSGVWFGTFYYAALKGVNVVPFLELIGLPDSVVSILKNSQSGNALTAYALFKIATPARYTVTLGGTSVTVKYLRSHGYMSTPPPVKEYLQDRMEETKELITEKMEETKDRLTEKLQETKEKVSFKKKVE
# ± gives the standard deviation of the averaged measurements. The list shows a part of the results, in another mix than the full data.
# Compound: Nc1ncnc2c1ncn2[C@@H]1O[C@H](COP(=O)(O)OP(=O)(O)NP(=O)(O)O)[C@@H](O)[C@H]1O [adenylyl imidodiphosphate]
# Assay: NP40-soluble protein abundance relative to vehicle (solubility fold change) (ratio); higher = more soluble protein in presence of AMP-PNP
# Outline: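 Jurkat crude lysate prepared with a Dounce homogeniser was treated at eight concentrations spanning 0.1 to 10 mM, 10 min at room temperature then 3 min at 37 °C. Solubilisation with 0.8% NP40 and benzonase and ultracentrifugation preceded TMT labelling of the supernatant for LC-MS/MS. Fold change against the detergent-processed vehicle was determined per replicate from vsn-normalised intensities, across three independent experiments.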
Target,NP40-soluble protein abundance (concentration: 1mM),NP40-soluble protein abundance (concentration: 2mM),NP40-soluble protein abundance (concentration: 4mM),NP40-soluble protein abundance (concentration: 6mM),NP40-soluble protein abundance (concentration: 8mM),NP40-soluble protein abundance (concentration: 10mM)
KPNA3 (UniProt O00505),1.04 ± 0.014,1.03 ± 0.025,1.02 ± 0.02,0.976 ± 0.013,0.988 ± 0.019,0.969 ± 0.047
K7EM18 and related entries (UniProt P41567),1.02 ± 0.035,1.07 ± 0.048,1.08 ± 0.052,1.11 ± 0.015,1.16 ± 0.037,1.2 ± 0.064
K7EK33 and related entries (UniProt Q96EP5),1.05 ± 0.027,1.1 ± 0.055,1.04 ± 0.041,1.021 ± 0.0074,1.02 ± 0.034,1.02 ± 0.054
K7ER90 and related entries (UniProt O75821),1.02 ± 0.075,1.1 ± 0.077,1.11 ± 0.095,1.24 ± 0.045,1.27 ± 0.074,1.42 ± 0.14
K7ESN3 and related entries (UniProt Q8N2G8),1 ± 0.033,0.996 ± 0.041,0.989 ± 0.018,0.98 ± 0.025,0.988 ± 0.041,0.988 ± 0.018
UniProt O15258 and related entries,0.995 ± 0.073,0.972 ± 0.022,1.03 ± 0.051,1.04 ± 0.12,1.12 ± 0.082,1.04 ± 0.05
UniProt O14523 and related entries,0.973 ± 0.015,0.988 ± 0.013,0.985 ± 0.037,0.968 ± 0.027,0.97 ± 0.047,1.01 ± 0.06
K7EK78 and related entries (UniProt Q86Y39+K7EQ77+K7EP35+K7EMT4+K7EK78),0.958 ± 0.013,0.963 ± 0.019,0.987 ± 0.032,1 ± 0.044,1.02 ± 0.019,1.01 ± 0.032
UniProt O00154-4|O00154-7|K7EKP8,1.01 ± 0.016,0.99 ± 0.016,1.04 ± 0.017,1.06 ± 0.052,1.06 ± 0.041,1.08 ± 0.025
B4GAT1 (UniProt O43505),0.991 ± 0.041,0.991 ± 0.031,1.02 ± 0.053,1 ± 0.024,0.995 ± 0.035,1.01 ± 0.03
UniProt O43566 and related entries,1.03 ± 0.055,1.041 ± 0.0074,1.02 ± 0.054,1.03 ± 0.019,1.04 ± 0.049,1.02 ± 0.028
K7ELQ9 and related entries (UniProt Q6UW68),0.998 ± 0.016,1.02 ± 0.031,0.996 ± 0.03,0.9955 ± 0.0067,0.996 ± 0.015,1.01 ± 0.028
PSMD3 (UniProt O43242),0.909 ± 0.031,0.865 ± 0.055,0.885 ± 0.091,0.906 ± 0.087,0.933 ± 0.11,0.915 ± 0.14
M0QX46 and related entries (UniProt Q6UUV9),1.01 ± 0.015,1.06 ± 0.099,1.04 ± 0.019,1.04 ± 0.038,1.02 ± 0.057,1.05 ± 0.06
UniProt O00592 and related entries,0.987 ± 0.036,1.04 ± 0.11,0.991 ± 0.067,0.987 ± 0.044,0.981 ± 0.064,1 ± 0.057
K7EKG9 and related entries (UniProt Q14CW9),1.03 ± 0.038,1.02 ± 0.059,0.998 ± 0.031,1.01 ± 0.024,1.01 ± 0.037,0.994 ± 0.047
UniProt O43379-4|O43379,0.995 ± 0.045,0.977 ± 0.027,0.977 ± 0.046,0.948 ± 0.056,0.921 ± 0.06,0.91 ± 0.073
UniProt O43172 and related entries,0.9909 ± 0.0052,0.979 ± 0.035,1.01 ± 0.012,1.06 ± 0.033,1.11 ± 0.031,1.15 ± 0.048
UniProt O00409 and related entries,0.996 ± 0.011,1.0076 ± 0.0009,1.01 ± 0.019,0.999 ± 0.051,1.01 ± 0.016,1.02 ± 0.016
M0R0P7 and related entries (UniProt Q02543),0.981 ± 0.063,0.927 ± 0.11,0.966 ± 0.098,0.911 ± 0.057,0.864 ± 0.071,0.955 ± 0.13

Target,NP40-soluble protein abundance (concentration: 1mM),NP40-soluble protein abundance (concentration: 2mM),NP40-soluble protein abundance (concentration: 4mM),NP40-soluble protein abundance (concentration: 6mM),NP40-soluble protein abundance (concentration: 8mM),NP40-soluble protein abundance (concentration: 10mM)
UniProt O00410 and related entries,0.977 ± 0.019,0.974 ± 0.025,0.956 ± 0.043,0.987 ± 0.048,0.976 ± 0.055,0.955 ± 0.059
GAK (UniProt O14976),0.994 ± 0.015,0.973 ± 0.043,1.01 ± 0.037,1 ± 0.031,1.01 ± 0.037,0.996 ± 0.043
UniProt O00442,1.01 ± 0.025,0.998 ± 0.094,1.02 ± 0.05,1 ± 0.028,1.04 ± 0.025,1 ± 0.042
EEF2K (UniProt O00418),0.985 ± 0.018,0.962 ± 0.045,0.976 ± 0.02,0.958 ± 0.018,0.946 ± 0.031,0.941 ± 0.021
HMGN4 (UniProt O00479),1.024 ± 0.01,1.01 ± 0.047,1.04 ± 0.056,1.1 ± 0.07,1.08 ± 0.075,1.22 ± 0.076
K7ENF0 and related entries (UniProt O43776),0.972 ± 0.039,0.956 ± 0.061,0.949 ± 0.012,0.959 ± 0.053,0.949 ± 0.02,0.924 ± 0.044
UniProt O15066 and related entries,1.022 ± 0.0017,1.06 ± 0.054,1.05 ± 0.047,1 ± 0.018,1.01 ± 0.025,1.01 ± 0.031
PDLIM1 (UniProt O00151),1.008 ± 0.0047,1.03 ± 0.029,0.998 ± 0.028,0.98 ± 0.022,0.959 ± 0.021,0.957 ± 0.046
UniProt O00330 and related entries,0.958 ± 0.19,0.941 ± 0.15,0.877 ± 0.19,0.916 ± 0.25,0.867 ± 0.14,0.916 ± 0.22
M0R2A0 and related entries (UniProt Q5UCC4),1.03 ± 0.034,0.991 ± 0.021,0.972 ± 0.027,1 ± 0.051,0.987 ± 0.062,1 ± 0.05
UniProt O15015 and related entries,1.007 ± 0.0041,1.01 ± 0.049,1.03 ± 0.024,1.01 ± 0.037,0.983 ± 0.074,1 ± 0.074
NCK2 (UniProt O43639),1.01 ± 0.021,0.975 ± 0.077,1.03 ± 0.06,0.987 ± 0.061,1.03 ± 0.067,0.992 ± 0.079
SCD (UniProt O00767),0.966 ± 0.063,0.917 ± 0.06,0.931 ± 0.034,0.946 ± 0.069,0.963 ± 0.06,0.944 ± 0.054
PPIH (UniProt O43447),0.967 ± 0.053,0.936 ± 0.035,0.991 ± 0.071,1.02 ± 0.045,1.04 ± 0.044,1.07 ± 0.09
K7ESQ2 and related entries (UniProt Q8NBT2),0.95 ± 0.057,0.998 ± 0.034,0.913 ± 0.065,0.85 ± 0.0095,0.835 ± 0.028,0.826 ± 0.064
UBE2L6 (UniProt O14933),0.953 ± 0.04,1.019 ± 0.0083,0.933 ± 0.074,0.928 ± 0.042,0.923 ± 0.036,0.911 ± 0.098
TIMM44 (UniProt O43615),0.982 ± 0.019,0.981 ± 0.023,0.947 ± 0.011,0.9596 ± 0.0093,0.947 ± 0.023,0.923 ± 0.014
M0QZM1 and related entries (UniProt P52272),1.01 ± 0.034,1.05 ± 0.037,1.04 ± 0.018,1.06 ± 0.055,1.06 ± 0.046,1.09 ± 0.037
UniProt O15379 and related entries,0.979 ± 0.027,0.942 ± 0.077,0.939 ± 0.027,0.935 ± 0.013,0.918 ± 0.012,0.9441 ± 0.0079
UniProt O14936 and related entries,0.993 ± 0.022,1.02 ± 0.017,0.985 ± 0.013,0.9876 ± 0.0029,0.985 ± 0.015,0.98 ± 0.023

# Reprinted at random: five entries already listed.
Target,NP40-soluble protein abundance (concentration: 1mM),NP40-soluble protein abundance (concentration: 2mM),NP40-soluble protein abundance (concentration: 4mM),NP40-soluble protein abundance (concentration: 6mM),NP40-soluble protein abundance (concentration: 8mM),NP40-soluble protein abundance (concentration: 10mM)
K7ER90 and related entries (UniProt O75821),1.02 ± 0.075,1.1 ± 0.077,1.11 ± 0.095,1.24 ± 0.045,1.27 ± 0.074,1.42 ± 0.14
UniProt O15258 and related entries,0.995 ± 0.073,0.972 ± 0.022,1.03 ± 0.051,1.04 ± 0.12,1.12 ± 0.082,1.04 ± 0.05
K7ELQ9 and related entries (UniProt Q6UW68),0.998 ± 0.016,1.02 ± 0.031,0.996 ± 0.03,0.9955 ± 0.0067,0.996 ± 0.015,1.01 ± 0.028
K7ENF0 and related entries (UniProt O43776),0.972 ± 0.039,0.956 ± 0.061,0.949 ± 0.012,0.959 ± 0.053,0.949 ± 0.02,0.924 ± 0.044
B4GAT1 (UniProt O43505),0.991 ± 0.041,0.991 ± 0.031,1.02 ± 0.053,1 ± 0.024,0.995 ± 0.035,1.01 ± 0.03

# The list goes on.

Target,NP40-soluble protein abundance (concentration: 1mM),NP40-soluble protein abundance (concentration: 2mM),NP40-soluble protein abundance (concentration: 4mM),NP40-soluble protein abundance (concentration: 6mM),NP40-soluble protein abundance (concentration: 8mM),NP40-soluble protein abundance (concentration: 10mM)
POLR1C (UniProt O15160),1.02 ± 0.015,0.968 ± 0.089,1.01 ± 0.03,0.991 ± 0.041,1.02 ± 0.041,0.993 ± 0.04
NDUFA4 (UniProt O00483),0.948 ± 0.073,0.914 ± 0.038,0.925 ± 0.038,0.929 ± 0.059,0.962 ± 0.023,0.906 ± 0.045
K7EKW4 and related entries (UniProt Q96AB3),1 ± 0.074,0.96 ± 0.066,1.01 ± 0.088,1.06 ± 0.042,1.07 ± 0.052,1.03 ± 0.073
ZBTB43 (UniProt O43298),0.998 ± 0.019,0.99 ± 0.015,0.991 ± 0.012,1.01 ± 0.05,1 ± 0.069,0.979 ± 0.064
M0QY01 and related entries (UniProt Q9UBC2),1.02 ± 0.015,1.08 ± 0.06,1.04 ± 0.026,0.989 ± 0.035,0.953 ± 0.015,0.967 ± 0.025
UniProt O00115 and related entries,0.989 ± 0.042,1.03 ± 0.069,0.97 ± 0.013,1.01 ± 0.027,0.939 ± 0.022,0.984 ± 0.013
STRN (UniProt O43815),1.01 ± 0.05,1.03 ± 0.0072,1.03 ± 0.026,1.03 ± 0.036,1.02 ± 0.034,1.04 ± 0.047
UniProt O00462 and related entries,1.02 ± 0.037,1.02 ± 0.026,1.02 ± 0.026,1 ± 0.032,1.01 ± 0.018,1.02 ± 0.033
SLC9A3R1 (UniProt O14745),1.014 ± 0.0091,1.05 ± 0.074,0.983 ± 0.031,0.966 ± 0.018,0.957 ± 0.011,0.929 ± 0.049
K7EK00 and related entries (UniProt Q96ND0),0.992 ± 0.02,1.03 ± 0.02,0.985 ± 0.04,1.03 ± 0.014,0.993 ± 0.014,1.028 ± 0.0082
UniProt O14733 and related entries,1.06 ± 0.023,1.02 ± 0.082,1.06 ± 0.059,1.02 ± 0.018,1.03 ± 0.067,1.06 ± 0.061
PPM1G (UniProt O15355),1.03 ± 0.021,1.11 ± 0.1,1 ± 0.04,0.996 ± 0.026,0.957 ± 0.024,0.984 ± 0.053
UniProt O43504,1.06 ± 0.011,1.1 ± 0.043,1.09 ± 0.021,1.02 ± 0.011,1.01 ± 0.024,1.07 ± 0.067
ARPC3 (UniProt O15145),0.957 ± 0.032,1.03 ± 0.03,0.946 ± 0.057,1.1 ± 0.17,1.09 ± 0.11,1.05 ± 0.06
K7ELQ0 and related entries (UniProt Q9BYD3),0.995 ± 0.037,0.97 ± 0.033,0.975 ± 0.058,0.986 ± 0.033,0.998 ± 0.055,0.993 ± 0.049
K7ERI7 and related entries (UniProt P35268),1.02 ± 0.038,1.01 ± 0.044,0.982 ± 0.034,1.02 ± 0.014,0.989 ± 0.044,1.04 ± 0.021
K7EMM8 and related entries (UniProt Q49A26),1.07 ± 0.062,1.14 ± 0.1,1.16 ± 0.14,1.25 ± 0.17,1.31 ± 0.2,1.47 ± 0.3
PIK3R2 (UniProt O00459),1 ± 0.04,1.01 ± 0.045,1.01 ± 0.019,0.968 ± 0.058,0.957 ± 0.057,0.937 ± 0.041
UniProt O43150 and related entries,0.98 ± 0.012,0.993 ± 0.011,0.972 ± 0.034,0.949 ± 0.024,0.933 ± 0.014,0.944 ± 0.045
UniProt O14647 and related entries,1.08 ± 0.011,1.12 ± 0.025,1.17 ± 0.04,1.23 ± 0.048,1.26 ± 0.051,1.32 ± 0.073
